Reference: patent publication US7208506B2, “Heteroarylethenyl derivatives, their manufacture and use as pharmaceutical agents” (Hoffmann-La Roche Inc., priority 2005, dated 2007)
Where a name gives a salt, the structure may show the parent alone. Some entries share one result that the patent states for a list of compounds. At least one structure is not confirmed: it was looked up by name or label, or the drawing left a doubt.

Tested on: HCT 116 cells
Test: CellTiter-Glo Luminescent Cell Viability Assay in HCT 116 cells
Type: cell-based
Conditions: HCT 116 human colon carcinoma cell viability, 120 h (5 days) incubation, 10 concentrations 30 μM to 0.0015 μM, triplicate
Description: CellTiter-Glo™ Assay in HCT 116 Cells
The CellTiter-Glo™ Luminescent Cell Viability Assay (Promega) is a homogeneous method of determining the number of viable cells in culture based on quantitation of the ATP present, which signals the presence of metabolically active cells.
HCT 116 cells (human colon carcinoma, ATCC-No. CCl1-247) were cultivated in RPMI 1640 medium with GlutaMAX™ I (Invitrogen, Cat-No. 61870-010), 2.5% Fetal Calf Serum (FCS, Sigma Cat-No. F4135 (FBS)); 100 Units/ml penicillin/100 μg/ml streptomycin (=Pen/Strep from Invitrogen Cat. No. 15140). For the assay the cells were seeded in 384 well plates, 1000 cells per well, in the same medium. The next day the test compounds were added in various concentrations ranging from 30 μM to 0.0015 μM (10 concentrations, 1:3 diluted). After 5 days the CellTiter-Glo™ assay was done according to the instructions of the manufacturer (CellTiter-Glo™ Luminescent Cell Viability Assay, from Promega). […] After 45 minutes the luminescent signal was measured in Victor 2, (scanning multiwell spectrophotometer, Wallac). […]
Measurement: • Victor 2 scanning multiwell spectrophotometer (Wallac), Luminescence mode (0.5 sec/read, 477 nm) • Determine IC50 using a non-linear curve fit (XLfit software (ID Business Solution Ltd., Guilford, Surrey, UK))

Structure (SMILES) | IC50 [µM]
Cc1cccc(/C=C/S(=O)(=O)NC(=O)c2ccc(Cl)cc2Cl)n1 [Example 2-5, (E)-2-(6-Methyl-pyridin-2-yl-ethenesulfonic acid 2,4-dichloro-benzoylamide; sodium salt] | 0.5 to 15
O=C(NS(=O)(=O)/C=C/c1cccs1)c1ccc(F)cc1Br [Example 3-10, (E)-2-Thiophen-2-yl ethenesulfonic acid 2-bromo-4-fluoro-benzoylamide; sodium salt] | 0.5 to 15
